PubChem BioAssay AID1159584 | Peter MacCallum Cancer Centre | 2016
This is a random part of about 18,000 reagents tested. Not stated in the record: the amount of reagent, the time to read-out.

- Purpose: 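Genes whose loss is lethal only together with E-cadherin loss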 (primary screen)
- Cells: human MCF10A breast epithelial cells, parental and CDH1-null
- Reagent: siRNA against human genes
- Read-out: 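Cell viability by CellTiter-Glo ATP luminescence, each line scaled to the mean of mock wells across plates, then CDH1-null over parental ratio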
- Scale: CDH1-null / parental viability ratio: higher = CDH1-null cells survive relatively better than parental; CDH1-null viability vs mock: higher = more viable CDH1-null cells; parental viability vs mock: higher = more viable parental cells

| gene knocked down | CDH1-null / parental viability ratio | CDH1-null viability vs mock (fraction of mock) | parental viability vs mock (fraction of mock) |
| --- | --- | --- | --- |
| CENPQ | 0.93 | 0.78 | 0.84 |
| PCDH7 | 1.11 | 0.84 | 0.76 |
| EIF4H | 1.15 | 1.06 | 0.92 |
| TPRN | 0.96 | 0.81 | 0.84 |
| SLC19A1 | 1.48 | 1.08 | 0.73 |
| FAM234B | 0.98 | 0.92 | 0.94 |
| GLB1L2 | 1.3 | 0.74 | 0.57 |
| VTCN1 | 0.81 | 0.7 | 0.86 |
| CHRNA3 | 1.29 | 0.98 | 0.76 |
| C1QTNF6 | 1.19 | 0.96 | 0.81 |
| KRTAP23-1 | 1.05 | 0.88 | 0.84 |
| STAG3L1 | 0.84 | 0.68 | 0.81 |
| PPIF | 1.27 | 0.79 | 0.62 |
| SSC4D | 0.85 | 0.71 | 0.84 |
| ADO | 0.97 | 0.6 | 0.62 |
| CABP1 | 0.98 | 0.84 | 0.86 |
| USP43 | 1.27 | 0.62 | 0.49 |
| FCHSD1 | 1.23 | 0.76 | 0.62 |
| HSD17B10 | 0.81 | 0.7 | 0.86 |
| LEFTY2 | 1.13 | 1.04 | 0.92 |
| CBY1 | 0.73 | 0.45 | 0.62 |
| CR2 | 1.13 | 0.95 | 0.84 |
| XTBD1 | 0.83 | 0.72 | 0.87 |
| UBE2D2 | 1.13 | 0.8 | 0.71 |
| VCF1 | 0.85 | 0.68 | 0.8 |
| RSBN1L | 0.95 | 0.76 | 0.8 |
| HSPB7 | 1.38 | 0.88 | 0.64 |
| ACSF3 | 1.13 | 0.59 | 0.52 |

2 entries from above in another layout.
{"gene knocked down": "KRTAP23-1", "CDH1-null / parental viability ratio": 1.05, "CDH1-null viability vs mock (fraction of mock)": 0.88, "parental viability vs mock (fraction of mock)": 0.84}
{"gene knocked down": "STAG3L1", "CDH1-null / parental viability ratio": 0.84, "CDH1-null viability vs mock (fraction of mock)": 0.68, "parental viability vs mock (fraction of mock)": 0.81}
